Test [1] concerns the target T1, IRF1 (human (endogenous in HeLa)) (UniProt P10914).
T1 sequence: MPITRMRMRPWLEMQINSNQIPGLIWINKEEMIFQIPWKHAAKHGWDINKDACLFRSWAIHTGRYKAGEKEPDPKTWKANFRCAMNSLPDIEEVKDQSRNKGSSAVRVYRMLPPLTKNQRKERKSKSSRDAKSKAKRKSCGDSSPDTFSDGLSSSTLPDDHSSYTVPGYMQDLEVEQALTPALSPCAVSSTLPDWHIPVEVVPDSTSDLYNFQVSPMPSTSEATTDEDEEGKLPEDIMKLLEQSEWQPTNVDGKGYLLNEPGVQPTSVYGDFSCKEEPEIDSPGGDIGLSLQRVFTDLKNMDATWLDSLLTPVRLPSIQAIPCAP
In words: co-IP; HeLa nuclear extracts immunoprecipitated with anti-IRF1 or anti-IRF2 antibodies, SDS-PAGE, blotted with BRG1 antibodies; also with ethidium bromide added.

Sequences of proteins named here, by UniProt entry; tags and fusion partners are left off.
UniProt P51532: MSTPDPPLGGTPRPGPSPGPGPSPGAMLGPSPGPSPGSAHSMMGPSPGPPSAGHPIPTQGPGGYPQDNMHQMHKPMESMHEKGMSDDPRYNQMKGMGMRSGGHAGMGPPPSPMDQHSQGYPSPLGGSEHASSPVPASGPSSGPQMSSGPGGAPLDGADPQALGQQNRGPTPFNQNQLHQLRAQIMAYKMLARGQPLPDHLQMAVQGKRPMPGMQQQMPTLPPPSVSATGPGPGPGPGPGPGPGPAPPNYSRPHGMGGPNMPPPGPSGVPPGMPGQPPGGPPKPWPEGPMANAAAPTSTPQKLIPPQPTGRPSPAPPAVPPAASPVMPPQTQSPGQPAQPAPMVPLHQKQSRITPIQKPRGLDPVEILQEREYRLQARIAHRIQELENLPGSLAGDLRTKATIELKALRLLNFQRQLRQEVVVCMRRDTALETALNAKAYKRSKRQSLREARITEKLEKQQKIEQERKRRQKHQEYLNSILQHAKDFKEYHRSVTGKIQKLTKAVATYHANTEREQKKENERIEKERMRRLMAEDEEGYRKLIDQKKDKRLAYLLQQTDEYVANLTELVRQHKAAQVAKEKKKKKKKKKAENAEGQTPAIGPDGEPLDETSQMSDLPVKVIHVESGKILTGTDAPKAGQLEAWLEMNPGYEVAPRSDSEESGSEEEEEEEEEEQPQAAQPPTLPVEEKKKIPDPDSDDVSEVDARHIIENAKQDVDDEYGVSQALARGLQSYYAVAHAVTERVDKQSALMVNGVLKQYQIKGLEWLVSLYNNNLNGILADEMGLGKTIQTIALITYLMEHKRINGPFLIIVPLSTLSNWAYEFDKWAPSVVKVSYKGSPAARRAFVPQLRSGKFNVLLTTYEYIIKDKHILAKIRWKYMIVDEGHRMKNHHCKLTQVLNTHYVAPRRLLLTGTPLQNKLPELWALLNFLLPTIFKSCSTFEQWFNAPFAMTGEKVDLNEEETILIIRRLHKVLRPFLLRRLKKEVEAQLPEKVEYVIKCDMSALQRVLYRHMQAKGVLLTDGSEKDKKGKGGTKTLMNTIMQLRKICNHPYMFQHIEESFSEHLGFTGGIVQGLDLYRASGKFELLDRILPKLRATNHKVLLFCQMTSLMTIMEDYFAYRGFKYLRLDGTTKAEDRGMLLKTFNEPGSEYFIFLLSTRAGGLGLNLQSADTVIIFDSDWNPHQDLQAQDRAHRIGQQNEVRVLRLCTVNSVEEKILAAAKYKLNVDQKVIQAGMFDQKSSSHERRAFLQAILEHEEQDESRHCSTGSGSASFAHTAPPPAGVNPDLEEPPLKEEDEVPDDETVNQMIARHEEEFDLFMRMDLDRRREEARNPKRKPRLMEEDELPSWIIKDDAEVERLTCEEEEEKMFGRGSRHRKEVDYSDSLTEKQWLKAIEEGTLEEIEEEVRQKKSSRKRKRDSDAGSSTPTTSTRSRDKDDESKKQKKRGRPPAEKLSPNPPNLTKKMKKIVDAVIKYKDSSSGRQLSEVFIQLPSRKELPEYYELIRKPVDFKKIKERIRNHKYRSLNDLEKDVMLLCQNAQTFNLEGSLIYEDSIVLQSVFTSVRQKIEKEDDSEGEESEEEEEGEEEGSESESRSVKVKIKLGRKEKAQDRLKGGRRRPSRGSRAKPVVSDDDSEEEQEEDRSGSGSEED

Test [2] deals with T2, IRF2 (human (endogenous in HeLa)) (UniProt P14316).
T2 sequence: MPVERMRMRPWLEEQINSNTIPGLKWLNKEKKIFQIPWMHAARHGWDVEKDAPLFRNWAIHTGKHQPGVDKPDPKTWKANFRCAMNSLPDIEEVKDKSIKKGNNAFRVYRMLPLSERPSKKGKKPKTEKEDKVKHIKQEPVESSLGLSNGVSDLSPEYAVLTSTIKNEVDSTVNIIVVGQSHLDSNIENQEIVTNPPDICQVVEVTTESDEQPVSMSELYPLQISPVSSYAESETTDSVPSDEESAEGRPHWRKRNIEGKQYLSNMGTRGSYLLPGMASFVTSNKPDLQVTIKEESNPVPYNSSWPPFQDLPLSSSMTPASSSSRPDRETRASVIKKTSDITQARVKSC
Described as above.

This note sets out measurements from publication PMC4424430.

These are yes or no findings as the source states them, for the method shown. In cells and extracts the contact can be indirect. Some binding calls cover weakened binding; strength is not graded here.

BRG1 (from UniProt P51532 1-1647): the binding result in test [1] and in test [2] was “binds” in each case.
